The values below come from article PMC3160902.

By UniProt entry, the sequences of proteins in these tests, tags left out.
UniProt P49841: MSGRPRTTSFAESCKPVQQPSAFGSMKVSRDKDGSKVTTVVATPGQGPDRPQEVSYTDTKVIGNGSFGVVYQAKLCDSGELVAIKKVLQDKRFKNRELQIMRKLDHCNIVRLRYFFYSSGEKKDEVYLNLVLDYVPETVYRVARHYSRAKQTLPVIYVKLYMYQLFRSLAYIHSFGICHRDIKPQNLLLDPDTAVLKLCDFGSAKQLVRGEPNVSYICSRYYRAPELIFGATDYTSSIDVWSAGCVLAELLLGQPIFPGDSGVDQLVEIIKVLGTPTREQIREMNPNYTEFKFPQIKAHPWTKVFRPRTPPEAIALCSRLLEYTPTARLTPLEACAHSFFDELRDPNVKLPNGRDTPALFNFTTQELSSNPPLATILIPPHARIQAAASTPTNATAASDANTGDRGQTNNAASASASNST

The target of experiment [1] is T1, GST-LRP5C, unphosphorylated (human) (UniProt O75197).
T1 sequence: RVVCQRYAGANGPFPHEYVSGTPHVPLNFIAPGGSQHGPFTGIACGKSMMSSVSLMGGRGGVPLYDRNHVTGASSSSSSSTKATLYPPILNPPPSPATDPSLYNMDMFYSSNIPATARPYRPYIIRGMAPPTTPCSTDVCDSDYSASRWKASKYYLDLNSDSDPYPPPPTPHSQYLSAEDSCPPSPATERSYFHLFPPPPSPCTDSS
Description: pull-down; GST, GST-LRP5C or GST-LRP6C on glutathione beads, with recombinant GSK3 (250 units) and CKI (500 units) in the in vitro phosphorylation reaction with or without ATP; washed 4x in high salt (50 mM HEPES pH 7.4, 500 mM NaCl, 1.5 mM EDTA, 1% Triton X-100, 10% glycerol); retained GSK3 detected by immunoblot; both purified. A general note: In western blotting, separated proteins are transferred to a membrane and probed.

Experiment [2] addresses T2, GST-LRP6C, unphosphorylated (human) (UniProt O75581).
T2 sequence: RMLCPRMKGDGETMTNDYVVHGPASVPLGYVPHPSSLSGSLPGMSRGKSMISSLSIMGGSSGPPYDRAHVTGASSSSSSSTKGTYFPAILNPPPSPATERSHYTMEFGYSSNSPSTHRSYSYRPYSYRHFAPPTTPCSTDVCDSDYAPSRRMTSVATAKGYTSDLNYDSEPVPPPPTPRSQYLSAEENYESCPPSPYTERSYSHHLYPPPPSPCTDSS
The description is as above.

Results are given in words; binding and its absence hold for the method and conditions named. Some results given as binding are weak or reduced against the parent protein; the word gives no strength. Where a sequence is shown, tags or fusion partners need not be part of it.

With “Recombinant GSK3 (GSK3β: P6040, NEB) (from UniProt P49841 1-420) (enzyme)”, the binding result in experiment [1] and in experiment [2] was “binds” throughout.
